Laboratory results reported in patent publication US12202816B2 (CALLIDITAS THERAPEUTICS SUISSE SA, priority 2018, dated 2025).
For at least one compound, name, drawing or mass did not settle the structure.

Target: hNOX enzymes
Test: ROS production measurement on hNOX membranes (Amplex Red fluorescence assay, assay 1)
Assay type: biochemical, human
Conditions: membranes from CHO or HEK cells overexpressing hNox enzymes; Nox isoform not stated; non linear regression; read-out: Nox inhibitory constant Ki
Description: Reactive oxygen species (ROS) production generated by hNOX enzymes was measured by fluorescence in both cellular and membrane-based assays using the Amplex® Red reagent. In the presence of horseradish peroxidase (HRP), the Amplex® Red reagent (10-acetyl-3,7-dihydroxyphenoxazine, AR), which is a colorless and nonfluorescent derivative of dihydroresorufin, reacts with H2O2 with a 1:1 stoichiometry to produce highly fluorescent resorufin at an excitation and emission wavelengths of 544 nm and 590 nm, respectively.
Membranes from CHO or HEK cells overexpressing hNox enzymes were prepared as previously described (Palicz et al., 2001, J. Biol. Chem, 76, 3090). After resuspension in sonication buffer (11% sucrose, 120 mM NaCl, 1 mM EGTA in PBS, pH 7.4), cells were broken by sonication and centrifuged (200 g, 10 min). […] Protein concentration was determined with Bradford reagent. […] FLUOstar OPTIMA microplate reader was supplied by BMG Labtech (Germany). […]
Reaction mixture is dispensed using Zephyr® Compact Liquid Handling Workstation. […] Fluorescence reading was recorded with the FLUOstar OPTIMA microplate reader for 10 min at 37° C. […]
The Table 14 below summarizes the inhibition of NOX activity as measured by the above described assay 1 and expressed by their inhibitory constant calculated by non linear regression analysis using GraphPad Prism Software (GraphPad Software Co., San Diego, CA): […]

SMILES | Ki [nM]
COc1cncc(-c2ccc3[nH]c(-c4ccnc(N5CCC(F)(F)CC5)c4)cc3c2)c1 [Example 22, (2-(4,4-difluoropiperidin-1-yl)pyridin-4-yl)-5-(5-methoxy-pyridin-3-yl)-1H-indole] | 113
COc1cncc(-c2cc3cc(-c4ccnc(C)c4)[nH]c3cc2F)c1 [Example 64, 6-fluoro-5-(5-methoxypyridin-3-yl)-2-(2-methylpyridin-4-yl)-1H-indole] | 132
